Values as published with doi:10.1371/journal.pone.0140310, rounded.

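The test systems are human melanoma cell lines, treated with a pair of drugs for 72 h and then stained and imaged. The read-out is the fraction of cleaved-PARP-positive nuclei, in % of that fraction in the DMSO control; 200 means twice the control level of this apoptosis marker. Concentrations were fixed for each drug; these are the higher of two levels. The file gives one value for each pair and line, without errors, so small differences may be noise. The marker varies much from line to line, for technical or biological reasons.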
This is part of the screen, not chosen by result.
A dash means that no value is listed here.

Drugs:
BMS-536924: Cc1cc(N2CCOCC2)cc2[nH]c(-c3c(NC[C@@H](O)c4cccc(Cl)c4)cc[nH]c3=O)nc12 at 1 µM
BI-D1870: CC(C)CCN1c2nc(Nc3cc(F)c(O)c(F)c3)ncc2N(C)C(=O)C1C (stereo unspecified) at 1 µM
decitabine: Nc1ncn([C@H]2C[C@H](O)[C@@H](CO)O2)c(=O)n1 at 0.5 µM
CHIR-265: Cn1c(Nc2ccc(C(F)(F)F)cc2)nc2cc(Oc3ccnc(-c4ncc(C(F)(F)F)[nH]4)c3)ccc21 at 0.4 µM
selumetinib: Cn1cnc2c(F)c(Nc3ccc(Br)cc3Cl)c(C(=O)NOCCO)cc21 at 0.075 µM

Cell line	BMS-536924 + decitabine	selumetinib + CHIR-265	BI-D1870 + selumetinib	decitabine + BI-D1870	CHIR-265 + BMS-536924	BI-D1870 + BMS-536924	BI-D1870 + CHIR-265
MEL-HO	75.9	174	111	213	99.4	152	84.1
SK-MEL-5	44.8	3040	154	112	1810	73.0	1280
A101D	48.3	137	174	184	296	50.8	252
501mel	-	-	338	54.4	-	-	132
WM115	52.6	2790	122	121	997	93.0	278
LB2518-MEL	53.0	1060	431	64.6	563	-	181
IPC-298	53.7	406	117	58.9	205	85.3	184
A2058	128	142	210	175	200	225	395
SK-MEL-30	52.1	365	230	105	187	63.4	98.3
WM1716	114	58.9	174	205	162	102	40.6
COLO 800	292	102	203	176	219	56.0	65.4
WM1745	140	181	-	-	486	198	175
COLO 829	142	618	88.4	146	267	162	225
A375	-	306	101	49.5	-	94.5	301
COLO 792	308	915	132	88.4	3410	260	930
WM3619	71.2	586	155	144	239	139	116
IST-MEL1	35.8	230	414	124	34.7	132	72.9
WM451Lu	135	852	479	158	1440	163	275
MZ2-MEL	89.4	810	436	72.9	372	-	125
SK-MEL-28	178	132	85.4	197	408	77.7	124
SK-MEL-2	102	1250	217	116	622	218	369
G-361	164	1890	209	189	1610	258	454
LOX IMVI	69.1	73.8	228	91.6	142	139	176
RVH-421	95.3	227	163	275	216	122	359
WM3526	95.7	2170	342	111	2190	135	426
RPMI-7951	70.7	56.3	51.2	617	49.5	82.4	104
UACC-62	112	242	241	401	185	200	140
C32	175	1380	90.5	75.5	618	104	447
MeWo	104	173	762	271	217	107	80.1
UACC-257	119	196	77.0	37.7	134	41.8	97.3

The last 2 entries again:

Cell line	BMS-536924 + decitabine	selumetinib + CHIR-265	BI-D1870 + selumetinib	decitabine + BI-D1870	CHIR-265 + BMS-536924	BI-D1870 + BMS-536924	BI-D1870 + CHIR-265
MeWo	104	173	762	271	217	107	80.1
UACC-257	119	196	77.0	37.7	134	41.8	97.3